This assay deals with MnmC from Escherichia coli (E. coli) (UniProt P77182). Put plainly: SEC; both purified. (Size exclusion chromatography separates by hydrodynamic size, large species first.)

These are yes or no findings as the source states them, for the method shown.

B1: MnmC from Escherichia coli (enzyme, UniProt P77182 1-668)
chain: MKHYSIQPANLEFNAEGTPVSRDFDDVYFSNDNGLEETRYVFLGGNQLEVRFPEHPHPLFVVAESGFGTGLNFLTLWQAFDQFREAHPQAQLQRLHFISFEKFPLTRADLALAHQHWPELAPWAEQLQAQWPMPLPGCHRLLLDEGRVTLDLWFGDINELTSQLDDSLNQKVDAWFLDGFAPAKNPDMWTQNLFNAMARLARPGGTLATFTSAGFVRRGLQDAGFTMQKRKGFGRKREMLCGVMEQTLPLPCSAPWFNRTGSSKREAAIIGGGIASALLSLALLRRGWQVTLYCADEAPALGASGNRQGALYPLLSKHDEALNRFFSNAFTFARRFYDQLPVKFDHDWCGVTQLGWDEKSQHKIAQMLSMDLPAELAVAVEANAVEQITGVATNCSGITYPQGGWLCPAELTRNVLELAQQQGLQIYYQYQLQNLSRKDDCWLLNFAGDQQATHSVVVLANGHQISRFSQTSTLPVYSVAGQVSHIPTTPELAELKQVLCYDGYLTPQNPANQHHCIGASYHRGSEDTAYSEDDQQQNRQRLIDCFPQAQWAKEVDVSDKEARCGVRCATRDHLPMVGNVPDYEATLVEYASLAEQKDEAVSAPVFDDLFMFAALGSRGLCSAPLCAEILAAQMSDEPIPMDASTLAALNPNRLWVRKLLKGKAVKAG
As for B1, the binding entry is given as “no binding (tested: approximately 1 mg applied)”.
